Measured data: PubChem BioAssay AID1259285 (Sanger Institute, 2017)
The whole screen tested 794 reagents; below is a part drawn at random. 20 of all reagents (2.5%) were called active. 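Calls rest on the drug-free arm alone and ignore synergy scores; viability ratios seem to be capped at 1.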 No sequences are given here. Not given: the amount of reagent, the time to read-out.

- Assay: 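Kinase knock-downs that reduce colorectal cancer cell viability or act with drugs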 (primary screen)
- System: human HCC56 colorectal cancer cells
- Knock-down reagent: siRNA pool against human genes
- Conditions: DMSO vehicle, or anchor drug BYL719 at 1 µM, cetuximab at 5 µg/ml, or trametinib at 10 nM
- Measurement: 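Viability as a ratio to non-targeting pool wells, averaged over replicates and turned into a robust z-score; synergy scores with BYL719, cetuximab or trametinib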
- Direction: viability robust z-score, no drug: higher = more viable cells, weaker knock-down effect; viability vs non-targeting pool, no drug: higher = more viable cells; synergy score with BYL719: higher = stronger combined killing with BYL719; synergy score with cetuximab: higher = stronger combined killing with cetuximab; synergy score with trametinib: higher = stronger combined killing with trametinib
- Hit rule: 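a knock-down counts as essential if its viability z-score without drug is under -3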
- Calls: active = essential without drug; inactive = no change without drug

Target gene	viability robust z-score, no drug	viability vs non-targeting pool, no drug	synergy score with BYL719	synergy score with cetuximab	synergy score with trametinib	Outcome
TSSK6	-0.915	0.882	-0.00923	0.0712	0.0458	inactive
HK1	0.458	1	-0.0241	-0.142	-0.0273	inactive
CDK4	0.458	1	-0.0364	0.00454	0.057	inactive
CAMK2N1	-1.14	0.863	0.0176	0.0264	-0.00251	inactive
NTN4	-0.624	0.907	-0.156	-0.062	0.0911	inactive
ACVR1C	0.458	1	-0.0817	-0.142	-0.022	inactive
SRP72	0.458	1	-0.162	-0.113	-0.167	inactive
CKMT2	0.458	1	-0.162	-0.142	-0.17	inactive
STK32A	0.458	1	-0.0809	-0.142	-0.0433	inactive
CALM1	-0.382	0.928	0.134	0.0177	0.0949	inactive
BUB1B	-0.384	0.928	0.0157	0.0494	0.0135	inactive
PFKM	0.458	1	-0.0508	-0.082	0.0627	inactive
PPP2R1A	0.458	1	-0.162	-0.00435	0.0426	inactive
NR4A2	-4.87	0.542	-0.0376	-0.0191	-0.0657	active
CNOT1	0.458	1	-0.104	-0.132	0.0471	inactive
MAP2K4	0.458	1	0.0357	0.0137	0.0191	inactive
RUNX1	0.362	0.992	0.0389	0.0732	0.0938	inactive
ADCK1	0.458	1	-0.162	-0.142	-0.157	inactive
IPMK	0.458	1	0.0349	-0.142	0.0433	inactive
TRIB1	0.458	1	-0.162	-0.142	-0.179	inactive
RELA	0.458	1	-0.00799	0.0156	-0.0101	inactive
CKM	0.237	0.981	0.08	0.00516	0.0577	inactive
POMK	0.458	1	-0.162	-0.142	-0.0701	inactive
DIS3	0.458	1	-0.0601	-0.0909	-0.0864	inactive
CUL1	0.458	1	-0.162	-0.142	-0.0683	inactive
EIF2AK1	0.458	1	-0.0452	0.0483	0.125	inactive
AAK1	-0.789	0.893	0.0593	0.116	0.0356	inactive
MKNK1	0.458	1	-0.0339	-0.142	-0.00443	inactive
PTPN11	0.458	1	-0.162	-0.142	-0.12	inactive
AXIN2	0.458	1	-0.125	-0.142	-0.00888	inactive
RPS6KA3	0.458	1	-0.0139	-0.142	-0.0562	inactive
STK17B	-0.575	0.911	0.0326	-0.0116	0.121	inactive
PKIB	0.458	1	-0.15	-0.142	0.0307	inactive
BRSK1	0.458	1	-0.0835	-0.103	0.0166	inactive
